## Library screen at single concentrations

Data taken from ChEMBL document CHEMBL3988442, “University of Dundee, Small-Polar-MMV Screening Library” (2021).

Each number is a percent effect as filed.
The controls that fix the scale are not given in the record; negative values are as filed.
Compounds were drawn at random from those tested, without regard to their results.
Two or more numbers in one place are separate tests of the same structure; such repeats can differ widely.

A: 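Phenotypic screen: M. tuberculosis growth, glucose 7H9 medium, 3 days; the read-out is not stated. Tested at 50 µM. Direction is inferred from retests: higher values go with more growth inhibition. Of about 69,000 compounds tested this way, about 760 (1.1%) reached 50% or more in at least one test.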
B: 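Whole-cell growth test on Mycobacterium tuberculosis, read after 4 days in a medium based on cholesterol and the lipid DPPC; the read-out is not stated. Concentration: 50 µM. Higher reads as more growth inhibition (inferred: compounds with an IC50 in retests scored well above the rest). Of about 69,000 compounds tested this way, about 370 (0.54%) reached 50% or more in at least one test.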

| # | Compound | A | B |
|---|---|---|---|
| 1 | `Cc1nn(CC(=O)O)c(C)c1NS(=O)(=O)c1cccc2ccccc12` | 7.981 | -3.201 |
| 2 | `CC(C)Cc1nc(CN(C)CCOc2ccccc2F)no1` | -16.83 | 26.68 |
| 3 | `Cc1cnn(CC2CCN(CC(O)Cn3cccn3)CC2)c1` (stereo not shown) | -22.2 | 3.922 |
| 4 | `N#Cc1ccc(OC2CCN(C(=O)c3ccccc3Cl)CC2)nc1` | 8.826 | 1.439 |
| 5 | `[H][C@@]12CN(C(=O)c3ccc(C)nc3)C[C@]1([H])CN(c1ncccn1)C2` | -12.26 and -9.622 | -7.976 |
| 6 | `Cc1c(C(=O)N(C)CC(C)O)sc2nc(C(F)(F)F)ccc12` (stereo not shown) | 6.693 | 1.204 |
| 7 | `Cc1nc(-c2ccc(C(=O)O)cc2)cc(C2CCN(C(C)C)C2)n1` (stereo not shown) | 8.179 | -20.71 |
| 8 | `CO[C@@H]1CCN(C(=O)c2cc(C)on2)C[C@@H]1Cc1ccccc1` | 24.91 | 1.42 |
| 9 | `CS(=O)(=O)Cc1nc(C2CC2)nn1-c1ccccn1` | 35.62 | 10.67 |
| 10 | `CCCC1COCCN1Cc1ccc(S(=O)(=O)NC)cc1` (stereo not shown) | -24.83 | -9.128 |
| 11 | `O=C(O)C(F)(F)F.O=C(O)C(F)(F)F.[H][C@@]12CC(=O)N(Cc3cccc(C)n3)[C@@]1([H])CCN2Cc1ccsc1` | -33.21 | -1.383 and 19.45 |
| 12 | `OC(CN1CCC(c2ccn[nH]2)CC1)c1cc(F)ccc1F` (stereo not shown) | 1.861 and -4.916 | -10.38 |
| 13 | `O=C(O)C(F)(F)F.[H][C@]12CCC[C@@H](CNc3ncccn3)[C@@]1([H])CN(Cc1cccnc1)C2` | -8.245 | 0.05525 and -8.057 |
| 14 | `O=S(=O)(NCc1cc2n(n1)CCNC2)c1ccc(OC(F)(F)F)cc1` | -10.31 and -1.811 | 11.55 |
| 15 | `Cc1cc(CN(C)C(=O)c2cccc(N3CCCS3(=O)=O)c2)no1` | 2.216 and -2.09 | 5.741 |
| 16 | `CCN(Cc1ccc2c(c1)OCO2)C(=O)Cn1cccnc1=O` | 1.036 | 8.156 |
| 17 | `O=C(O)C(F)(F)F.O=C(O)C(F)(F)F.c1cnc(N2CCOCC3(CCCN(Cc4cccs4)C3)C2)nc1` (stereo not shown) | -25.01 | 1.464 and -15.35 |
| 18 | `Cc1ccccc1N1CCCN(CC2(O)CCCNC2)CC1` (stereo not shown) | 13.51 and 8.218 | 2.603 |
| 19 | `CNc1cc(C)nc(N2CCC3(CC2)[C@H](O)C[C@@H]3O)n1` | 13.9 | 18.13 |
| 20 | `Cc1ccc(S(=O)(=O)N2CCc3ccc(F)cc32)cc1C(=O)O` | 10 | 9.545 |
| 21 | `Cc1cccc2c(CCNS(=O)(=O)C3CCOC3)c[nH]c12` (stereo not shown) | -23.15 | -24.34 |
| 22 | `COc1cccc2c1OCC(Cc1cnc(N)c(C)c1)C2` (stereo not shown) | -5.381 | 9.653 and 2.314 |
| 23 | `Cc1cc(C)c2c(N(C)CC3COCCO3)ncnc2n1` (stereo not shown) | 26.53 and 1.253 | -10.04 |
| 24 | `O=c1[nH]c(NCc2cccc(OC(F)F)c2)nc2c1CCNC2` | 13.24 | 1.324 |
| 25 | `CC(=O)N1CCC(Cc2cnc(-n3ccnc3)cn2)CC1` | 17.39 | 11.78 |
| 26 | `Cc1nc(COC[C@H]2CCC[C@@]23CN(C(C)C)CCO3)cs1.O=C(O)C(F)(F)F` | 17.02 | -9.735 |
| 27 | `CNc1snc(C)c1C(=O)N1CCCC(n2nc(C)nc2C)C1` (stereo not shown) | 1.28 | 1.366 |
| 28 | `CC1CN(C(=O)c2cccc(OCc3cscn3)c2)CCO1` (stereo not shown) | -16.22 | -12.15 |
| 29 | `O=C(O)C(F)(F)F.[H][C@@]12CCN(C(=O)c3cnn(C)c3)[C@@]1([H])CCN2Cc1cccc(F)c1` | -25.79 | -16.11 |
| 30 | `Cc1cc(C)n(CC2CN(CC(=O)Nc3nncs3)CCO2)n1` (stereo not shown) | 8.894 | -3.345 |
| 31 | `CSc1ccc(-c2nc(CN3CCC(NC(C)=O)C3)c(C)o2)cc1` (stereo not shown) | 13.47 | -11.21 |
| 32 | `CCn1nc(C(=O)N2CCCC2c2noc(C3CC3)n2)ccc1=O` (stereo not shown) | 4.242 and -49.8 | -41.07 |
| 33 | `CN1CCCN(Cc2nc(Cc3ccccc3)n[nH]2)CC1` | 9.043 and -1.129 | -1.725 |
| 34 | `Cc1nc(CNC(C(=O)N2CCOCC2)c2ccccc2)cs1` (stereo not shown) | -3.382 and -5.154 | 5.502 |
| 35 | `Cc1nc(-c2ccccc2)cc(C2CCNCC2)n1.Cl` | -17.03 | -4.096 |
| 36 | `CCn1nc(CC(C)C)cc1C(=O)NCC(F)(F)F` | -19.82 | -24.21 |
| 37 | `O=C(c1ccccc1OCC1CC1)N1CCCC1Cn1cccn1` (stereo not shown) | -36.24 | -7.611 |
| 38 | `COC(=O)[C@@H]1C[C@H](NC(=O)Cn2c(=O)cc(C)c3ccccc32)CN1C` | 20.41 | 6.485 |
| 39 | `CC(C)[C@@H]1CN(CCOc2ccccc2)C[C@H]1NS(=O)(=O)N(C)C` | 9.39 | -5.471 |
| 40 | `CC(C)(CNC(=O)OC(C)(C)C)NC(=O)C1CC(=O)N(C2CC2)C1` (stereo not shown) | -15.39 | -20.65 |
| 41 | `CCc1ccc(CN(CCCn2ccnc2)Cc2ccc(C)s2)o1.O=C(O)CC(O)(CC(=O)O)C(=O)O` | 74.03 | 85.38 |
| 42 | `Fc1ccccc1Cc1noc(CN2CCCC(CN3CCCC3)C2)n1` (stereo not shown) | -1.843 | -10.31 |
| 43 | `CC(C)C(C)(O)CNC(=O)Nc1ccccn1` (stereo not shown) | -3.521 | -2.589 |
| 44 | `CC(=O)NCC(=O)N1CCC2(COCc3c(C)nc(N(C)C)nc32)C1` (stereo not shown) | 31.41 | -3.585 |
| 45 | `Cc1ccc(C(=O)NCCNc2ncccc2C#N)c(=O)[nH]1` | -11.78 | -24.17 |
| 46 | `O=C(CN(Cc1ccccc1)CC1CCOCC1)Nc1nccs1` | 5.21 | -16.52 |
| 47 | `CC(C)CNc1nc2c(cc1C(=O)NCC1CC1)CCNCC2` | -16.56 and 16.04 | -41.54 |
| 48 | `CCn1c(SCC(=O)N2CCOCC2)nc2cc(C)[nH]c2c1=O` | -52.82 | -26.2 |
| 49 | `CC(=O)N(C)Cc1ccccc1NC(=O)c1ccccc1C` | -0.2905 and -26.89 | -29.52 |
| 50 | `CSc1cccc(CN(C)C(=O)Cn2ncc(N(C)C)cc2=O)c1` | -21.32 | 6.623 |
| 51 | `O=C(O)C(F)(F)F.[H][C@@]12CCCO[C@]1([H])[C@H](NC(=O)c1cnoc1C)CN(C1CCC1)C2` | 11.51 | 14.64 |
| 52 | `CN1C(=O)CC(c2cnn(C)c2)C12CCN(CC1CCOCC1)CC2.O=C(O)C(F)(F)F` (stereo not shown) | -15.56 | 3.681 |
| 53 | `Cc1cc(C(=O)N2CCc3nnc(N)cc3C2)c(C)n1C1CC1` | 0.7573 | -11.86 |
| 54 | `Cc1occc1CNC(=O)NCCN(C)C1CCCC1` | -2.404 | -29.42 |
| 55 | `CCC(CNS(=O)(=O)c1c[nH]cn1)Oc1ccccc1F` (stereo not shown) | 12.94 | 3.041 |
| 56 | `Cc1noc(C)c1S(=O)(=O)N1CCC(Oc2cccnn2)CC1` | -2.908 and -10.25 | -1.913 |
| 57 | `Cc1cnn(C2CCCN(C(=O)Cn3ccc(=O)n(C)c3=O)C2)c1` (stereo not shown) | 18.73 | 10.12 |
| 58 | `CC(C)N1CC(C(=O)NCCc2csc(-c3ccncc3)n2)CC1=O` (stereo not shown) | -95.12 | -68.5 |
| 59 | `CCOc1ccc(S(=O)(=O)NC(=O)CC2CCCO2)cc1` (stereo not shown) | -28.75 | -30.67 |
| 60 | `CC(C)c1noc(C2CCCN2C(=O)Cc2cn3ccsc3n2)n1` (stereo not shown) | 9.305 | 1.129 and -8.08 |
| 61 | `CC(Cn1cccn1)Nc1cnc2ccccc2n1` (stereo not shown) | 32.19 | 26.18 |
| 62 | `Cc1cc(Oc2ccccc2)nc(C2CCN(CCO)CC2)n1` | -15.05 | -18.39 and -3.796 |
| 63 | `COCCN(C)C[C@@H]1CN(C(=O)c2cccc(C#N)c2)C[C@@H]1CO` | -7.842 | -21.37 |
| 64 | `CN(CC1CCCN(S(C)(=O)=O)C1)c1cnn(C)c1` (stereo not shown) | -43.01 | -25.43 |
| 65 | `c1coc(-c2nc3c(c(NCc4n[nH]c5c4CCC5)n2)CCNCC3)c1` | 19.28 | -1.229 |
| 66 | `CCn1ncc2c1C(COC)N(C(=O)c1cscn1)CC2.O=C(O)C(F)(F)F` (stereo not shown) | -41.56 | -22.59 |
| 67 | `CCS(=O)(=O)N1CCc2c(cccc2NCc2ncc[nH]2)C1` | -2.974 and -11.22 | -1.227 |
| 68 | `COc1cc(NC2CCS(=O)(=O)CC2)ncn1` | -7.848 | 10.32 |
| 69 | `CCNC(=O)CCN1CCCC1c1cccc2c1OCCO2` (stereo not shown) | 28.73 | 13.61 and -1.938 |
| 70 | `COc1cc(CNc2ccc(C)c(Cl)c2)ccc1OCC(N)=O` | 10.39 and 7.463 | 13.27 |
| 71 | `CCOc1ncccc1C(=O)N1CCCCC1c1nccs1` (stereo not shown) | 39.96 | 7.485 |
| 72 | `CC(=O)N1CCC2(CC1)C(=O)N(CC1CCN(C)CC1)c1ccccc12.O=C(O)C(F)(F)F` | -11.72 | -6.911 |
| 73 | `N#Cc1ccc(CN2CCOCC2)cc1` | 1.877 | -3.467 |
| 74 | `O=S1(=O)CCC(N2CCN(c3cc(C(F)(F)F)ccn3)CC2)C1` (stereo not shown) | 12.89 | -15.89 |
| 75 | `Cc1ccccc1C(=O)NCC(=O)NCc1ccccn1` | -11.18 | -11.79 |
| 76 | `CC(C)(C)CN1Cc2cc3c(cc2NCCC1=O)OCO3` | -6.868 | -3.964 |
| 77 | `CCc1cc(NCCCc2nc(C)no2)nc(-c2ccncc2)n1` | 6.665 | -13.63 |
| 78 | `COc1ccc(-c2csc3c2c(N)nc(=O)n3CC(N)=O)cc1` | -25.14 | 3.709 |
| 79 | `CO[C@H]1C[C@@H](O)C12CCN(Cc1nc(C(F)(F)F)no1)CC2` | 5.822 and -1.454 | -3.885 |
| 80 | `Cc1nn(C(C)C)c(C)c1S(=O)(=O)Nc1ccc(C(=O)O)c(Cl)c1` | -2.85 | 8.994 |

The last 10 entries again:

Compound,A,B
CCOc1ncccc1C(=O)N1CCCCC1c1nccs1 (stereo not shown),39.96,7.485
CC(=O)N1CCC2(CC1)C(=O)N(CC1CCN(C)CC1)c1ccccc12.O=C(O)C(F)(F)F,-11.72,-6.911
N#Cc1ccc(CN2CCOCC2)cc1,1.877,-3.467
O=S1(=O)CCC(N2CCN(c3cc(C(F)(F)F)ccn3)CC2)C1 (stereo not shown),12.89,-15.89
Cc1ccccc1C(=O)NCC(=O)NCc1ccccn1,-11.18,-11.79
CC(C)(C)CN1Cc2cc3c(cc2NCCC1=O)OCO3,-6.868,-3.964
CCc1cc(NCCCc2nc(C)no2)nc(-c2ccncc2)n1,6.665,-13.63
COc1ccc(-c2csc3c2c(N)nc(=O)n3CC(N)=O)cc1,-25.14,3.709
CO[C@H]1C[C@@H](O)C12CCN(Cc1nc(C(F)(F)F)no1)CC2,5.822 and -1.454,-3.885
Cc1nn(C(C)C)c(C)c1S(=O)(=O)Nc1ccc(C(=O)O)c(Cl)c1,-2.85,8.994